Measured values as given in PMC10401043.
These are yes or no findings as the source states them, for the method shown. In cells and extracts the contact can be indirect. Some results given as binding are weak or reduced against the parent protein; the word gives no strength.

Chains of the proteins cited; added tags and fusions are not shown. Residues count along the entry.
UniProt P35579, residues 1795-1960: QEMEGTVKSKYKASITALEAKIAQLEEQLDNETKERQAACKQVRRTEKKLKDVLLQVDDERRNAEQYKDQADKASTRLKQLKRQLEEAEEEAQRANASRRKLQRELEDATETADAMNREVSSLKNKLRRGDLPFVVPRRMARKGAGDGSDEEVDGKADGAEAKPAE

Molecular target: GST-myosin II heavy chain tail (amino acids 1795-1960) (UniProt P35579)
Assay: pull-down; 10 μg purified GST-tagged protein on Glutathione Sepharose 4B, 200 μl precleared lysate of MelJuSo cells (siRNA control), 30 min at 4°C, western blot; only the target purified

B1: Retinoic Acid-Induced 14 (Rai14), endogenous in MelJuSo cells (protein, UniProt Q9P0K7 1-980)
chain: MKSLKAKFRKSDTNEWNKNDDRLLQAVENGDAEKVASLLGKKGASATKHDSEGKTAFHLAAAKGHVECLRVMITHGVDVTAQDTTGHSALHLAAKNSHHECIRKLLQSKCPAESVDSSGKTALHYAAAQGCLQAVQILCEHKSPINLKDLDGNIPLLLAVQNGHSEICHFLLDHGADVNSRNKSGRTALMLACEIGSSNAVEALIKKGADLNLVDSLGYNALHYSKLSENAGIQSLLLSKISQDADLKTPTKPKQHDQVSKISSERSGTPKKRKAPPPPISPTQLSDVSSPRSITSTPLSGKESVFFAEPPFKAEISSIRENKDRLSDSTTGADSLLDISSEADQQDLLSLLQAKVASLTLHNKELQDKLQAKSPKEAEADLSFDSYHSTQTDLGPSLGKPGETSPPDSKSSPSVLIHSLGKSTTDNDVRIQQLQEILQDLQKRLESSEAERKQLQVELQSRRAELVCLNNTEISENSSDLSQKLKETQSKYEEAMKEVLSVQKQMKLGLVSPESMDNYSHFHELRVTEEEINVLKQDLQNALEESERNKEKVRELEEKLVEREKGTVIKPPVEEYEEMKSSYCSVIENMNKEKAFLFEKYQEAQEEIMKLKDTLKSQMTQEASDEAEDMKEAMNRMIDELNKQVSELSQLYKEAQAELEDYRKRKSLEDVTAEYIHKAEHEKLMQLTNVSRAKAEDALSEMKSQYSKVLNELTQLKQLVDAQKENSVSITEHLQVITTLRTAAKEMEEKISNLKEHLASKEVEVAKLEKQLLEEKAAMTDAMVPRSSYEKLQSSLESEVSVLASKLKESVKEKEKVHSEVVQIRSEVSQVKREKENIQTLLKSKEQEVNELLQKFQQAQEELAEMKRYAESSSKLEEDKDKKINEMSKEVTKLKEALNSLSQLSYSTSSSKRQSQQLEALQQQVKQLQNQLAECKKQHQEVISVYRMHLLYAVQGQMDEDVQKVLKQILTMCKNQSQKK
- binding: binds
